Where two headings read alike, the source gives them in different places. No constants are given. Whether binding was seen depends on the method and setting. For some assays here: Binding seen in cells or lysates may run through a third protein. Some results given as binding are weak or reduced against the parent protein; the word gives no strength. Tags and fused reporters may be left off the sequences shown.

The chains behind the UniProt entries cited, without tags or fusion partners.
UniProt Q9UT24: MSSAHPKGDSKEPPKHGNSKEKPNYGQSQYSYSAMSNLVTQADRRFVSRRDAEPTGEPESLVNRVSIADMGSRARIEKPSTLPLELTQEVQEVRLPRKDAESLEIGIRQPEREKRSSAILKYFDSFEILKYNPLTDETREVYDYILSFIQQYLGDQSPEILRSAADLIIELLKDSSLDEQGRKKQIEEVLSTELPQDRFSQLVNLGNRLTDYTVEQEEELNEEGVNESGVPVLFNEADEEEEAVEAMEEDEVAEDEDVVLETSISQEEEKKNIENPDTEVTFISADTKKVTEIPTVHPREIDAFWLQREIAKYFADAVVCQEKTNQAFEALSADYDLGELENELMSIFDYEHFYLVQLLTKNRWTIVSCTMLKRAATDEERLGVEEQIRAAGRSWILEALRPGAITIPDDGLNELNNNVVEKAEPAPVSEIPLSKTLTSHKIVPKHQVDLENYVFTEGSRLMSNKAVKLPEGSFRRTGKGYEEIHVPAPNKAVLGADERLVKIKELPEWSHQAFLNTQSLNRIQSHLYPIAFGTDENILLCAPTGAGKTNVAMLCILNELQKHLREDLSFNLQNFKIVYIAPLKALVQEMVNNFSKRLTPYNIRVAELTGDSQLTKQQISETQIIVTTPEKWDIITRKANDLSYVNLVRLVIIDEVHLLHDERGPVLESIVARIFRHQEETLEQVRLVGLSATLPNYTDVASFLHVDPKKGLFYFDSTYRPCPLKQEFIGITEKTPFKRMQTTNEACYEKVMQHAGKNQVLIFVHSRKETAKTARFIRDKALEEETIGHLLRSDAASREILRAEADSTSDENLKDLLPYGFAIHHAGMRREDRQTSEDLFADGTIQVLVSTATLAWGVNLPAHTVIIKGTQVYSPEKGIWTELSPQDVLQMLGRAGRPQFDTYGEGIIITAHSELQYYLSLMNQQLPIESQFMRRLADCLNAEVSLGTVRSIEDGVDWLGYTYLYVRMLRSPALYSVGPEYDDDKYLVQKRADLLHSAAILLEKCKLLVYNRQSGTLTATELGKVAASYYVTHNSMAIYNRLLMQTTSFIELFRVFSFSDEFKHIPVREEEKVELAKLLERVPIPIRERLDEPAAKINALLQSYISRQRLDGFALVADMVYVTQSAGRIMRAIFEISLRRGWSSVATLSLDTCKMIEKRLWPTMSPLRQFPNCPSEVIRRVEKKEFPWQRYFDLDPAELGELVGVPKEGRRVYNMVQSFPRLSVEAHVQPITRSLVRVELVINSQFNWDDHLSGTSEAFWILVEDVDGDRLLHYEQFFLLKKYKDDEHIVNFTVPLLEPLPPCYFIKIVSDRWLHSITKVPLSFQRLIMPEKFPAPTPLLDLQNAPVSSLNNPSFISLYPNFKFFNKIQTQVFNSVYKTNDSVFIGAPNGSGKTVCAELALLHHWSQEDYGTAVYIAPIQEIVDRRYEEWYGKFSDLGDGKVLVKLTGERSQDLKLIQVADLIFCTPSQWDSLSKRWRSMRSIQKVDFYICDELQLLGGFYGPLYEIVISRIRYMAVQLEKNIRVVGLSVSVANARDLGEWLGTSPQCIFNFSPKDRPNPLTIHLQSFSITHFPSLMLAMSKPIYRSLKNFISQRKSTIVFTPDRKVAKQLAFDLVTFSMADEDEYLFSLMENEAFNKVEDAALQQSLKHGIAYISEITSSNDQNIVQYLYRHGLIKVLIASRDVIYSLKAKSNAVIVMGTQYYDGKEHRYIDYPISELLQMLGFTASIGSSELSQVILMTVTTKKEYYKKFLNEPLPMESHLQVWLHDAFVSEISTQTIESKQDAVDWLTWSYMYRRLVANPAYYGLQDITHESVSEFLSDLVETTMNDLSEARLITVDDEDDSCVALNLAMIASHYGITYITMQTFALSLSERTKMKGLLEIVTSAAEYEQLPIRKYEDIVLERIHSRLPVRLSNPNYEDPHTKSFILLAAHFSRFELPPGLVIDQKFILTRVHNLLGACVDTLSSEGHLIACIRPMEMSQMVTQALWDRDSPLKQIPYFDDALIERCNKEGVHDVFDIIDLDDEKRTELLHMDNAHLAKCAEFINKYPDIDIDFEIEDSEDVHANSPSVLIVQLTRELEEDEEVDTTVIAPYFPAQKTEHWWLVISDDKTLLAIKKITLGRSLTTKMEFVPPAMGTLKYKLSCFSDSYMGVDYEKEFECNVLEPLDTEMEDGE

Data on five molecules can be found in paper doi:10.1101/2025.09.02.673742.

Assay [1] concerns the target T1, GST-Tls1 (S. pombe) (UniProt Q10148).
T1 sequence: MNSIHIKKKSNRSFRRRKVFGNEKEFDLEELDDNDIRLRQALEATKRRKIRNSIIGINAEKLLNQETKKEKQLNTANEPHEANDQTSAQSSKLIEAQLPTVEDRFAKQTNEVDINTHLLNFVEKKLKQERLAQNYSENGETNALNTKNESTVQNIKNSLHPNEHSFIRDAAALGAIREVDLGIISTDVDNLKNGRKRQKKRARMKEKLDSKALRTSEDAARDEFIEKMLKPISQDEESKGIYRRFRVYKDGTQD
Description: pull-down.

The target in assay [2] is T1, GST-Tls1 (S. pombe). Description: pull-down. The source holds these as a separate data set.
The target in assay [3] is Brr2 (entire ORF, yeast two-hybrid fusion) (S. pombe) (UniProt Q9UT24). Description: two-hybrid.

In the case of “Flag-tagged Brr2 (from UniProt Q9UT24 1-2176)”, the binding entry in the assay with GST-Tls1 (S. pombe) [1] is recorded as “binds”.

B1: Flag-tagged Prp19 (protein, UniProt O14011 1-488)
chain: MFCSISGETPKEPVISRVSGNVYEKRLIEQVIRETSKDPVTQQECTLEDLVPVKVPDFVRPRPPSATSLPALLSLFQEEWDSVALEQFELRRNLTETKQELSTALYSLDAALRVISRLTKERDEAREALAKFSDNIGTVSSKTIEVQEVEMGESDDQLKTSLRSTVEKTFQELSSKRKRTKLQPKWATDDAVSQLLQATPSTILENLETESTTSFFPSPENSSFVLCLHKDELLCLDIQSNSTLKIFEGSALACCWLTSSKIAVATADAISIFEFPVSSSGLQSVGEPTSSIPIDEKVNFLQAHPSGEYLLAASNEKCYIFSLKSQVYNITVAQHITSLAVHPDGNLFVAGLENGELRFFETSSGNELTKFGPHSSPVKTLQFGENGYWLVVTTNDDSDIFIWDLRKSELVQKIPLQTKVAAVSLDITSQLLVSSDGETLYVHIYVKSSKSWRCMSQTHVSSISNLVWLNELHQLLFSTSNGAILRLG
As for B1, the binding entry with GST-Tls1 (S. pombe) [2] is given as “binds weakly”.

B2: Flag-tagged Rap1 (protein, UniProt Q96TL7 1-693)
chain: MSFTFTKSDGSSILFAVSKNFEHIRGFKNAIDCFKGKIEFLSFDKVDPTKHDYYLVAEDERVSDLDIPKGFFERNPEFRHKMLKIAWITQCIEQGKLLPTESFEVELNQDDVNRTHDGFRKRELFTLEDEKILIDHVHKNDINRFGTKVYEELARKYPQHSLESWRQHYKYMKKRLPPVSDSDESNYCQRIIVKPYSSQKDYTQSTHEQTLSSPISKSASVSKSENKALVNNKRYSDSYFYFSKMRRISIDVDYVDEDLNLINAYLSQFGKKRSLNELCALLSRRFSNRHTFSEWRALFMHFFPFINSEGVDPAILSDRETSAMLDETSDNEVADIDDQMIERKYLFSASEPNTVKSTNRLIFSERKAYAADDSIDNTPSKVPIVNSLSDPRTNRPFFYSNPDSMYRSISNPLHLVDSQHLSPLNRKTHFNNPIGQPQFTCLDDHEKTLRETSFRSLDDMSLRKSNSDNIFVKPGEDLEIPLLSDYSDSENISEKSSDDEEAFEKQVTSSYSSPIKVKSQGKSSKGSSGLDVREHEGSDDDAEVFVDRSPESFGATKVAHTSLEGNAASHKKVEENMQQPVTKKQKKYRMVNEEAHTGPTIIIPSDNNEKVTTLPAGHVPSEEKGKFINLAMHELQNEVSILRSSVNHREVDEAIDNILRYTNSTEQQFLEAMESTGGRVRIAIAKLLSKQTS
For the molecule B2, in the assay with GST-Tls1 (S. pombe) [2], the binding entry is on record as “no binding”.

B3: Cay1 (entire ORF, yeast two-hybrid fusion) (protein, UniProt O14342 1-517)
chain: MAFRDSTRDFNRSRPEKRHASRSSSPRSFRPSNQNARANYNLPRVRDAMKEEERSRETKEMQEREFLRLQQLRRAIIRLKNDRSKPIDKLLVSVYLMPGPEWEENGEKNSIDFGTVDMFDPLSVIQSYKAEDLEEISRNIGDIQQLETNQCRLTYWKYVKMLVNSRMEHNKVGQFSRGLKVVAGEVQRILAPKSFEQLEQLEAQIQKKLKSNVPLDTDYWVDLLNSLKSYKAIAYLKKTFNEELQIRKNKLDNEEWDKAFSDAKKLSNMKDREEKLYIVPIDPKPILRAQAIPRRIQPEEQADYEKELNDHVNIVKSSTYIPISIPTQKQKPTLPKNSNLINEDEFSIANRARLEREYLQSDDAEEQEMLGDYVEGQTRVVNENGVTLKKPHYFNRVLLGFEWNSYNQAHFNEAHPPPKAVQGYRFNVFYPDLIGTGRAPTYRIERTRRKNKSDTTDLQDDVCIIRFIAGEPYQDIAFSIVDKDWDYSAKRDHGFKSSFDNGVLSLHFRFKKLHHRR
Take B3: in assay [3], the binding result is recorded as “no binding”.

B4: Tls1 (entire ORF, yeast two-hybrid fusion) (protein, UniProt Q10148 1-254)
chain: MNSIHIKKKSNRSFRRRKVFGNEKEFDLEELDDNDIRLRQALEATKRRKIRNSIIGINAEKLLNQETKKEKQLNTANEPHEANDQTSAQSSKLIEAQLPTVEDRFAKQTNEVDINTHLLNFVEKKLKQERLAQNYSENGETNALNTKNESTVQNIKNSLHPNEHSFIRDAAALGAIREVDLGIISTDVDNLKNGRKRQKKRARMKEKLDSKALRTSEDAARDEFIEKMLKPISQDEESKGIYRRFRVYKDGTQD
Turning to B4, the binding result in assay [3] is reported as “binds”.
